The values below come from US20210401776A1, “METHOD OF TREATING […] SYNDROMES USING FENFLURAMINE ENANTIOMERS” (ZOGENIX INTERNATIONAL LIMITED, priority 2018, published 2021).

Assay type in all cases: in vivo, Male Swiss OF-1 mice
The subject of data set [1] is dizocilpine-treated mice. As to the kind of experiment: spontaneous alternation in the Y-maze, dizocilpine-induced amnesia model.
Data set [2] has as its system dizocilpine-treated mice. As to the kind of experiment: dizocilpine-induced learning deficits, statements covering both tests (Y-maze and passive avoidance). To be noted: for interaction by combination index: combination of low doses with PRE-084; for interaction by CIs: combination with DHEAS. On the procedure: Experiments were conducted to determine the dose-response effects of fenfluramine (FEN) and norfenfluramine (NOR), racemate and (+)- and (−)-isomers, in an in vivo mouse model; the dizocilpine-induced amnesia model (described below) is used to test responses to drugs acting at the sigma-1 receptor (S1R) (Maurice et al., 1994a,b; Maurice, et al., 1998, Neuroscience 83:413-428).
The drugs were administered intraperitoneally (“ip” or “IP”) with dizocilpine (0.15 mg/kg) and tested in the spontaneous alternation test on day 1 and in the passive avoidance test on days 2-3.
The apparatus consisted of a 2-compartment box, with one illuminated with white polyvinylchloride (PVC) walls and a transparent cover (15×20×15 cm high), one with black polyvinylchloride walls and cover (15×20×15 cm high), and a grid floor. A guillotine door separated each compartment. A 60 W lamp was positioned 40 cm above the apparatus lit the white compartment during the experimental period. Scrambled foot shocks (0.3 mA for 3 s) were delivered to the grid floor using a shock generator scrambler (Lafayette Instruments, Lafayette, Mass., USA). The guillotine door was initially closed during the training session. Each mouse was placed into the white compartment. After 5 s, the door was raised. When the mouse entered the darkened compartment and placed all its paws on the grid floor, the door was gently closed and the 3-scrambled foot shock was delivered for 3 s. The step-through latency, i.e., the latency spent to enter the dark compartment, and the level of sensitivity to the shock were recorded. The latter was evaluated as: 0=no sign; 1=flinching reactions; 2=flinching and vocalization reactions. The retention test was carried out 24 h after training. Each mouse was placed again into the white compartment. After 5 s, the door was raised. The step-through latency was recorded up to 300 s. Animals entered the darkened compartment or were gently pushed into it and the escape latency, i.e., the time spent to return into the white compartment, was also measured up to 300 s. Results were expressed as median and interquartile (25%-75%) range.
The Y-maze is made of grey PVC. Each arm is 40 cm long, 13 cm high, 3 cm wide at the bottom, 10 cm wide at the top, and converged at an equal angle. Each mouse was placed at the end of one arm and allowed to move freely through the maze during an 8-min session. The series of arm entries, including possible returns into the same arm, were checked visually. An alternation was defined as entries into all three arms on consecutive occasions. The number of maximum alternations was therefore the total number of arm entries minus two and the percentage of alternation was calculated as: actual alternations/maximum alternations)×100. Parameters included the percentage of alternation (memory index) and total number of arm entries (exploration index).

The test system of data set [3] is dizocilpine-treated mice. The data set can be described thus: step-through passive avoidance, dizocilpine-induced amnesia model.

Take `CCNC(C)Cc1cccc(C(F)(F)F)c1` (racemic) [Fenfluramine, (RS)—N-ethyl-1-[3-(trifluoromethyl)phenyl]propan-2-amine]: the “interaction by CIs, spontaneous alternation test” value with dizocilpine-treated mice [1] (combination with PREGS) is “additive or synergistic effect”. Also, in the data set with dizocilpine-treated mice [2], the “interaction by combination index” value was “synergistic effects” and the “interaction by CIs” value is recorded as “additive or synergistic effects”. Also, the “interaction by CIs, passive avoidance response” value in the data set with dizocilpine-treated mice [3] (combination with PREGS) was “but not in the passive avoidance response”.
In the case of `CCN[C@@H](C)Cc1cccc(C(F)(F)F)c1` [(+)-Fenfluramine, (2S)-N-ethyl-1-[3-(trifluoromethyl)phenyl]propan-2-amine], in the data set on dizocilpine-treated mice [2], the “interaction by combination index” value is recorded as “synergistic effects” and the “interaction by CIs” value is “additive or synergistic effects”. Further, in the data set on dizocilpine-treated mice [2] (combination of the lowest doses with DHEAS), the “interaction by CIs, both spontaneous alternation and passive avoidance” value was “synergistic”. In addition, the “interaction by CIs, all responses” value in the data set with dizocilpine-treated mice [2] (combination with PREGS) is given as “additive or synergistic effects”.
As for `CCN[C@H](C)Cc1cccc(C(F)(F)F)c1` [(−)-Fenfluramine, (2R)-N-ethyl-1-[3-(trifluoromethyl)phenyl]propan-2-amine], the “interaction by CI, Y-maze assay” value in the data set on dizocilpine-treated mice [1] (combination with PRE-084) is “antagonistic effect”. The “interaction by CI, passive avoidance assay” value with dizocilpine-treated mice [3] (combination with PRE-084) is “additive effect”.
